In patent publication US20060115815A1 (priority 2002, published 2006):
The match of structure and compound is tentative.

System: MT-2 cells
Assay: Cytotoxicity Cell Culture Assay (CC50), XTT
Conditions: read-out: Cytotoxicity CC50, 5 days

COc1ccc(S(=O)(=O)N(CC(C)C)C[C@@H](O)[C@H](Cc2ccc(OCP(=O)(Oc3ccccc3)Oc3ccccc3)cc2)NC(=O)O[C@H]2CO[C@H]3OCC[C@H]32)cc1 [drawing 651 R1=OPh R2=OPh]
CC50: 35 µM
